Results are given in words; binding and its absence hold for the method and conditions named. For some of these results: A result given as binding can be weak or reduced; the word gives no strength. Where a sequence is shown, tags or fusion partners need not be part of it. Values belong to the binder of their own block, whether it stands above or below them.
Legend:
[1] = target: microtubules of COS-7 cells expressing mCherry-α-tubulin (not stated | African green monkey (endogenous in COS-7)); test: live-cell confocal imaging of microtubule decoration
[2] = target: microtubules of COS-7 cells expressing mCherry-α-tubulin (not stated | African green monkey (endogenous in COS-7)); test: condition: only with 20 μM ZnCl2 and 2.5 μM pyrithione

binding [1]: binds | binding [2]: no binding
B1: EGFP-DCX (protein, UniProt O43602 1-365)
chain: MELDFGHFDERDKTSRNMRGSRMNGLPSPTHSAHCSFYRTRTLQALSNEKKAKKVRFYRNGDRYFKGIVYAVSSDRFRSFDALLADLTRSLSDNINLPQGVRYIYTIDGSRKIGSMDELEEGESYVCSSDNFFKKVEYTKNVNPNWSVNVKTSANMKAPQSLASSNSAQARENKDFVRPKLVTIIRSGVKPRKAVRVLLNKKTAHSFEQVLTDITEAIKLETGVVKKLYTLDGKQVTCLHDFFGDDDVFIACGPEKFRYAQDDFSLDENECRVMKGNPSATAGPKASPTPQKTSAKSPGPMRRSKSPADSGNDQDANGTSSSQLSTPKSKQSPISTPTSPGSLRKHKDLYLPLSLDDSDSLGDSM

binding [1]: binds | binding [2]: no binding
B2: EGFP-MAP2C (protein, UniProt P11137-2 1-471)
chain: MADERKDEAKAPHWTSAPLTEASAHSHPPEIKDQGGAGEGLVRSANGFPYREDEEGAFGEHGSQGTYSNTKENGINGELTSADRETAEEVSARIVQVVTAEAVAVLKGEQEKEAQHKDQTAALPLAAEETANLPPSPPPSPASEQTVTVEEAAGGESALAPSVFKQAKDKVSDGVTKSPEKRSSLPRPSSILPPRRGVSGDRDENSFSLNSSISSSARRTTRSEPIRRAGKSGTSTPTTPGSTAITPGTPPSYSSRTPGTPGTPSYPRTPHTPGTPKSAILVPSEKKVAIIRTPPKSPATPKQLRLINQPLPDLKNVKSKIGSTDNIKYQPKGGQVQIVTKKIDLSHVTSKCGSLKNIRHRPGGGRVKIESVKLDFKEKAQAKVGSLDNAHHVPGGGNVKIDSQKLNFREHAKARVDHGAEIITQSPGRSSVASPRRLSNVSSSGSINLLESPQLATLAEDVTAALAKQGL

— article doi:10.1101/2021.12.02.470968
